Test results as given in PMC6474811.
Results are given in words; binding and its absence hold for the method and conditions named. In cells and extracts the contact can be indirect. Some entries that bind do so weakly or less than the wild type.

Chains of the proteins cited; added tags and fusions are not shown.
UniProt Q9UKA9: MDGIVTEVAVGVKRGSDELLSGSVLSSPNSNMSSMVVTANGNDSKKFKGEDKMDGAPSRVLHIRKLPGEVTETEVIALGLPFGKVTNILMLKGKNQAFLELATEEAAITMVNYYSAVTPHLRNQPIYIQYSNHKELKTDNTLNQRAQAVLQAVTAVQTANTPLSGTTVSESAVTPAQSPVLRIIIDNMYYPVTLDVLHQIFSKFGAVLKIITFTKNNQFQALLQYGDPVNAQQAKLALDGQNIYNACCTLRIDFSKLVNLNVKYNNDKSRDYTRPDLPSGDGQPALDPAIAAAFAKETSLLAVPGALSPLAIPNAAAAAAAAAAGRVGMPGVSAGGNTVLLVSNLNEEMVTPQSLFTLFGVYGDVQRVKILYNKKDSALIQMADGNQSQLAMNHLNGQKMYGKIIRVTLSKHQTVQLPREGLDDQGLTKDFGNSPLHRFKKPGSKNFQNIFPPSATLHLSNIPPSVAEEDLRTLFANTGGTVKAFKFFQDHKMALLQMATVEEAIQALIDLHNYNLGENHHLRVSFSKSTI

Target: T1, NOVA1 (human) (UniProt P51513)
T1 sequence: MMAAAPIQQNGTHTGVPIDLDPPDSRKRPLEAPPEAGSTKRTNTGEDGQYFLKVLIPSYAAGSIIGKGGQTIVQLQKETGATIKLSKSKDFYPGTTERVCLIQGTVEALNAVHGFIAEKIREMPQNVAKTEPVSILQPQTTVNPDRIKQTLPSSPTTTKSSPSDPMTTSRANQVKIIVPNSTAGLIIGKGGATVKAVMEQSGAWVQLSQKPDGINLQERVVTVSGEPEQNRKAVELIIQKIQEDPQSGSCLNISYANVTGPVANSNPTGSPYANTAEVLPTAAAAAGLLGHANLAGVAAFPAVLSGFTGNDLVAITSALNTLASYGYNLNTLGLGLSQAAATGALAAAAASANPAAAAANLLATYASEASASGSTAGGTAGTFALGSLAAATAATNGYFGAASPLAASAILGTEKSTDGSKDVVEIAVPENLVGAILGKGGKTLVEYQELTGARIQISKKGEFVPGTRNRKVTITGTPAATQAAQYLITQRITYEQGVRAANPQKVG
Assay: co-IP; Co-IP 'in humans' (human cells); bait, cell line and conditions are not told in the text shown (Supplementary Figure 2)

- binding: binds
Substance: PTBP2 (from UniProt Q9UKA9 1-531)
